Test results reported in PubChem BioAssay (EPA / NIEHS).
“And” between values parts separate entries of the source, which are not always exact repeats. Equal entries are not always repeated. Inconclusive results, whose numbers are uncertain, are shown with a selection of clear calls. Potencies of inconclusive entries are doubtful fits and often do not repeat. Where a structure was tested more than once in an assay, its records may differ in their call. The source made the active and inactive calls. How the source made its calls: active means hit-call score of the fitted dose curve at least 0.9, where 1 is the maximum; inconclusive means response in the unintended direction; inactive means score below 0.9.

Chains of the proteins cited; added tags and fusions are not shown. Lines headed by an entry give the natural chain unless they say otherwise; changes in a name come on top.
UniProt P43354, whole entry, looked up: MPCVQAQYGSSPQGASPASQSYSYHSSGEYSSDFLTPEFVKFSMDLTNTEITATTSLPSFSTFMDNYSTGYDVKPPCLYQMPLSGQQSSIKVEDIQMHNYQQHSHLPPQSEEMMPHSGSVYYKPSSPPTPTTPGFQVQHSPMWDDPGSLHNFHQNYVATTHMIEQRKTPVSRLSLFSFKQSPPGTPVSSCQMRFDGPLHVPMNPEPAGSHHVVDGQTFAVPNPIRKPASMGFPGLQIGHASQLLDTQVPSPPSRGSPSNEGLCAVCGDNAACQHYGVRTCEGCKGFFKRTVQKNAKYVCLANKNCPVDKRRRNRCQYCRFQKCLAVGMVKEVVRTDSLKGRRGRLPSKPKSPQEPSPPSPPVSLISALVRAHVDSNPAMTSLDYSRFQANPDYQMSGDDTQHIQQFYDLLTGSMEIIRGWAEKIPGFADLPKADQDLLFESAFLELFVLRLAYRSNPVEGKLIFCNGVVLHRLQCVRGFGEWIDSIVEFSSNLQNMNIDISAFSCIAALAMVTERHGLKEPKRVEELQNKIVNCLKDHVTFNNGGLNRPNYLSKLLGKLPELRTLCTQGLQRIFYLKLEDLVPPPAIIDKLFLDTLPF
UniProt Q07869: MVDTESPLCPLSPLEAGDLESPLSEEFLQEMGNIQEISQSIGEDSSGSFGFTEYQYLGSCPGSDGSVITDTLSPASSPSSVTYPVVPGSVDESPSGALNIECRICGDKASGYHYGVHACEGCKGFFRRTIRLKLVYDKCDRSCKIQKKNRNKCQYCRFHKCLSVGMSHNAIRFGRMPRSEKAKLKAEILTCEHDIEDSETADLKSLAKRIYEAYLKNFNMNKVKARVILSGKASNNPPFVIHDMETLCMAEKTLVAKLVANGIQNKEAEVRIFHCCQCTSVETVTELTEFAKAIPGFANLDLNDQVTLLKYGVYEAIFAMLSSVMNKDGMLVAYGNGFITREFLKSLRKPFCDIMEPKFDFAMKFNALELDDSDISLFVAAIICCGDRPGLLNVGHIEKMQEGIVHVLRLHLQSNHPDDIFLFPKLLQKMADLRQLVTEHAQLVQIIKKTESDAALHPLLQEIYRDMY

System: not listed separately
Assay: ATG_M_06_TRANS: Attagene TRANS-FACTORIAL HepG2 Assay for M06 Transcription Factor (Internal Marker) (AID 2282983);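 on AC50: potency for rise in reporter mRNA above DMSO baseline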
Conditions: HepG2 Attagene TRANS M06 internal marker reporter
How it was run: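 Background-control reporter readout: after 24 h chemical exposure of transiently transfected HepG2 (GAL4-UAS reporter units), mRNA quantified by RT-PCR with fluorescent labeling and capillary electrophoresis. Gain-of-signal fitting against DMSO baseline.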

SMILES	AC50	outcome
CC(C)COC(=O)CC(C(=O)OCC(C)C)S(=O)(=O)O (stereo not drawn)	inconclusive: 0.0829 µM	–
CCCC[N+](C)(CCCC)CCCC	inconclusive: 98.5 µM	–
FC(F)(F)C(F)(F)C(F)(F)C(F)(F)C(F)(F)C(F)(F)I	inconclusive: 0.0136 µM	–
O=C(Cl)c1ccc(Cl)cc1Cl	–	inactive
CCCCCCCCCCO[C@@H]1O[C@H](CO)[C@@H](O)[C@H](O)[C@H]1O	inconclusive: 0.275 µM	–
CC(C)C(=O)OCc1ccccc1	inconclusive: 100 µM	–
N#CC1(N)CCCCC1	inconclusive: 58.2 µM	–

System: not listed separately
Assay: ATG_M_32_TRANS: Attagene TRANS-FACTORIAL HepG2 Assay for M32 Transcription Factor (Internal Marker) (AID 2282984);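 on outcome: transcript level of a background control reporter unit measured by RT-PCR and capillary electrophoresis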
Conditions: HepG2 Attagene TRANS M32 internal marker reporter
How it was run: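 After 24 h dosing of transfected HepG2 cells, total RNA was reverse-transcribed, reporter sequences PCR-amplified, 6-FAM labelled by primer extension and HpaI-digested before capillary electrophoresis. Signal increase over DMSO was fitted.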

SMILES	AC50	outcome
CC(C)COC(=O)CC(C(=O)OCC(C)C)S(=O)(=O)O (stereo not drawn)	inconclusive: 24.7 µM	–
O=C(/C=C/C=C/c1ccc2c(c1)OCO2)N1CCCCC1	–	inactive
Oc1ccc(Cc2ccccc2O)cc1	–	inactive
O=C(Cl)c1ccc(Cl)cc1Cl	–	inactive
OCCC(F)(F)C(F)(F)C(F)(F)C(F)(F)C(F)(F)C(F)(F)C(F)(F)C(F)(F)F	–	inactive
CC(C)C=O	inconclusive: 27.1 µM	inactive

Target: Nuclear receptor subfamily 4 group A member 2 (Homo sapiens) (UniProt P43354)
Assay: ATG_NURR1_TRANS: Attagene TRANS-FACTORIAL HepG2 Assay for human Nuclear Receptor Related Protein 1 (NURR1) (AID 2282985)
Conditions: HepG2 Attagene TRANS reporter, mRNA readout
How it was run: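 Chimeric NR-Gal4 fusion activity measured in HepG2 after 24 h treatment. Reporter transcripts detected by RT-PCR and capillary electrophoresis fluorescence; positive-direction curve fitting against DMSO.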

SMILES	outcome	AC50
CC(C)COC(=O)CC(C(=O)OCC(C)C)S(=O)(=O)O (stereo not drawn)	inactive	–
O=C(O)C(F)(OC(F)(F)C(F)(OC(F)(F)C(F)(F)C(F)(F)F)C(F)(F)F)C(F)(F)F (stereo not drawn)	–	active: 98.8 µM
OC[C@H]1O[C@@H]2O[C@H]3[C@H](O)[C@@H](O)[C@@H](O[C@H]4[C@H](O)[C@@H](O)[C@@H](O[C@H]5[C@H](O)[C@@H](O)[C@@H](O[C@H]6[C@H](O)[C@@H](O)[C@@H](O[C@H]7[C@H](O)[C@@H](O)[C@@H](O[C@H]1[C@H](O)[C@H]2O)O[C@@H]7CO)O[C@@H]6CO)O[C@@H]5CO)O[C@@H]4CO)O[C@@H]3CO	inactive	–
CCCC[N+](C)(CCCC)CCCC	–	inconclusive: 98.5 µM
O=C(Nc1cccc(C(F)(F)F)c1)c1cc(Br)cc(Br)c1O	inactive	–
O=C(Cl)c1ccc(Cl)cc1Cl	inactive	–
CCCCCCCCCCCCN1CCOCC1	–	inconclusive: 53.6 µM
OCCC(F)(F)C(F)(F)C(F)(F)C(F)(F)C(F)(F)C(F)(F)C(F)(F)C(F)(F)F	inactive	–
CC(C)C=O	–	inconclusive: 100 µM
CCCCCCCCCCCSCC(=O)O	–	active: 23 µM
CCOC(C)=O	inactive	–
CC(C)CCCCCOC(=O)CS	inactive	–
N#CC1(N)CCCCC1	inactive	–

2 compounds picked at random from the list so far, as already listed:
SMILES	outcome	AC50
OCCC(F)(F)C(F)(F)C(F)(F)C(F)(F)C(F)(F)C(F)(F)C(F)(F)C(F)(F)F	inactive	–
O=C(O)C(F)(OC(F)(F)C(F)(OC(F)(F)C(F)(F)C(F)(F)F)C(F)(F)F)C(F)(F)F (stereo not drawn)	–	active: 98.8 µM

Target: human Peroxisome Proliferator-activated Receptor alpha (PPARa), PPARA (gene 5465) (UniProt Q07869)
Assay: ATG_PPARa_TRANS: Attagene TRANS-FACTORIAL HepG2 Assay for human Peroxisome Proliferator-activated Receptor alpha (PPARa) (AID 2283001);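 on AC50: potency for gain of reporter signal over DMSO so agonist or activator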
Conditions: not given
How it was run: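 Cells (HepG2) are transfected with multiple reporter transcription units, exposed to chemical for 24 h, then total RNA is reverse-transcribed and amplified. Labelled products are quantified by capillary electrophoresis; induction is referenced to DMSO.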

SMILES	AC50	outcome
O=C(O)C(F)(OC(F)(F)C(F)(OC(F)(F)C(F)(F)C(F)(F)F)C(F)(F)F)C(F)(F)F (stereo not drawn)	active: 108 µM	–
O=C(/C=C/C=C/c1ccc2c(c1)OCO2)N1CCCCC1	inconclusive: 100 µM	–
Oc1ccc(Cc2ccccc2O)cc1	–	inactive
OC[C@H]1O[C@@H]2O[C@H]3[C@H](O)[C@@H](O)[C@@H](O[C@H]4[C@H](O)[C@@H](O)[C@@H](O[C@H]5[C@H](O)[C@@H](O)[C@@H](O[C@H]6[C@H](O)[C@@H](O)[C@@H](O[C@H]7[C@H](O)[C@@H](O)[C@@H](O[C@H]1[C@H](O)[C@H]2O)O[C@@H]7CO)O[C@@H]6CO)O[C@@H]5CO)O[C@@H]4CO)O[C@@H]3CO	inconclusive: 93.7 µM	–
CCCC[N+](C)(CCCC)CCCC	–	inactive
O=C(Nc1cccc(C(F)(F)F)c1)c1cc(Br)cc(Br)c1O	active: 1.58 µM	–
Cc1cc(F)ccc1-c1cc(N2CC[C@@H](O)[C@H]2CO)ncc1N(C)C(=O)C(C)(C)c1cc(C(F)(F)F)cc(C(F)(F)F)c1	inconclusive: 16.7 µM	–
FC(F)(F)C(F)(F)C(F)(F)C(F)(F)C(F)(F)C(F)(F)I	–	inactive
O=C(Cl)c1ccc(Cl)cc1Cl	–	inactive
[Na+]	inconclusive: 0.0352 µM	–
CCCCCCCCCCCCN1CCOCC1	inconclusive: 8.11 µM	–
O=S(=O)(O)c1ccc(N=Nc2c(O)ccc3cc(S(=O)(=O)O)ccc23)cc1	inconclusive: 0.116 µM	–
CC(C)C=O	inconclusive: 100 µM	–
CCCCCCCCCCCSCC(=O)O	active: 2.85 µM	–
C[C@]12C=CC(=O)C=C1CC[C@@H]1[C@@H]2[C@@H](O)C[C@@]2(C)[C@H]1CC[C@]2(O)C(=O)CO	–	inactive
